The whole screen tested about 52,000 sequences, of which about 210 (0.4%) were called active.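 Rule for the calls: active = gene whose silencing raises cell survival under the drug, median off-target-corrected z-score across its silencing RNAs 2 or more; inactive = the rest.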 This is one part of the list.
Experiment: Resistance to Poly (ADP-Ribose) Polymerase inhibitor: Gene Identification via Genome-wide siRNA Screen
Conditions: mouse BRCA2 R2336H ES cells, olaparib, CellTiter-Glo viability; stronger effect = higher value
Procedure, shortened: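 Mouse BRCA2 R2336H ES cells were reverse-transfected with siRNA (20 nM final), treated at 48 h with 500 nM olaparib, and read by CellTiter-Glo after 72 h. Scores: MAD-based z per siRNA, median per gene, seed off-target correction.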
For GCAUCGUUACAGGACUUUATT against Enpp1, the z-score was inactive: -0.601. In the case of “GGACUGGCUCUGAAAAAAATT against 2310066N05Rik”, the z-score is reported as inactive: 0.186. For GCGAGAGACAACUGACUAATT against Cnbp2, the z-score was inactive: -1.58. In the case of CGUACAACACGGAAACCUATT against Paqr5, the z-score is reported as inactive: 1.79. In the case of GCAAUAGCAGCAACUCUUATT against Dbpht1, the z-score is reported as inactive: 0.61. For GGAGGGAGUAUAUUUUCUATT against Mgll, the z-score was inactive: -0.701. For GGCUGUAUGAAUCAAAGGATT against Nr5a2, the z-score was inactive: -1.06. With CCUAUUAUUCCAACUUUUGTT against Ceecam1 the z-score was inactive: 0.442. With GGCCAUACGGACCAUGUAUTT against Slc25a19 the z-score was inactive: -0.397. With GGUAAACCUGUGUUUUGAUTT against Cyfip2 the z-score was inactive: -0.196. For “GGAAGAUCAGAGAUGGACATT against 4432409M07Rik”, the z-score was inactive: -2.25. With GGUGGAGUUCGUGUUGAGCTT against Gabt4 the z-score was inactive: 1.98. For CGAUUCCAGAAGAUCAUGUTT against Ott, the z-score was inactive: -1.31. For GGCUGGUCUCCAAACCCAATT against F13b, the z-score was inactive: 1.41. For GGAGCACAAAAAUCAGACATT against Hmga1l4, the z-score was inactive: 0.75. With GCCUACGAGGACAGUACAATT against Mst1r the z-score was inactive: 0.412. In the case of “GGAGACAAUCUGGAUAAGCTT against 2810032G03Rik”, the z-score is reported as inactive: -0.00302. With GGAGGUCUUCAGUUCUUACTT against Fntb the z-score was inactive: -1.63. With “GGACACUGUGGAUAAUGACTT against 1810009J06Rik” the z-score was inactive: -0.56. With GGAAAUGGUCCCUCUGUGUTT against Bzrap1 the z-score was inactive: -1.22. With CGCUACGACUAGAGUUUGCTT against Rbpms the z-score was inactive: 1.28. For GCUAGACCCAUAAUAAAACTT against Synpo2l, the z-score was inactive: 0.84. In the case of “CCGCAUUCCCAUGAAGACATT against 4933430F16Rik”, the z-score is reported as inactive: -0.262. For GGUCAAUUUGGUUUGUGAATT against Cenpa, the z-score was inactive: -1.16. For CCCGACCUCAACAUUUGUATT against Bmp2k, the z-score was inactive: 0.0815. With “GGGCCUCAAACAUCUGACUTT against 2600016J21Rik” the z-score was inactive: -0.357. With “GCUCCAAAGAGAUUGAGACTT against 4933417K04Rik” the z-score was inactive: -0.27. With GCAAUAGUGAGCACGCCAGTT against Col18a1 the z-score was inactive: 1.19. In the case of “GGUAUGGUUUCUAUAACAATT against 9330196J05Rik”, the z-score is reported as inactive: 1.43.

— PubChem BioAssay AID1347423 (Functional Genomics Laboratory (NCATS/FGL), 2020)
